The target of data set [1] is LC3B-WT (mature, cleaved by ATG4B) (human) (UniProt Q9GZQ8). Put plainly: EMSA. Particulars: 1 mM Mg2+, 2 uM probe; EMSA: 40 mM Tris pH 8.0, 30 mM KCl, 1 mM MgCl2, 0.01% NP-40, 1 mM DTT, 30 C 1 h; recombinant protein; residues 1-120; protein details: MBP fusion cleaved off by human ATG4B.
Another data set deals with BSA (UniProt P02769). Put plainly: EMSA. Particulars: 1 mM Mg2+, 2 uM probe; EMSA: 40 mM Tris pH 8.0, 30 mM KCl, 1 mM MgCl2, 0.01% NP-40, 1 mM DTT, 30 C 1 h. In general terms: Mobility shift assays separate free from complexed probe on a gel.
The target of data set [2] is LC3B-WT (mature, cleaved by ATG4B) (human) (UniProt Q9GZQ8). Put plainly: fluorescence polarization. Particulars: 1 mM Mg2+, FP: same buffer without NP-40, 100 nM RNA final (200 nM stock diluted 1:2), protein 3.4-880 uM, temperature not stated, recombinant protein, residues 1-120, protein details: MBP fusion cleaved off by human ATG4B. Background: Fluorescence polarisation rises when a labelled molecule tumbles more slowly, as on binding a larger partner.

The values that follow come from PMC8931120.

For some of these results: Negatives hold for the conditions tested. For some of these results: The exact form of at least one protein or probe is not confirmed. For some of these results: The comparison behind a weaker result is the experiment's own reference, which may not be listed here. For some of these results: At least one verdict rests on a figure or table, not on a statement of the authors.

Regarding AAAAAAAAAAAAAAAAAA [Cy5-AAAAAAx3], the binding result in data set [1] is reported as “binds more weakly”.

Turning to AAUAAAAAUAAAAAUAAA [Cy5-AAUAAAx3], the binding result with BSA was “no binding”.

For the sequence ACGCCAAAAAAA [Cy5-ACGCCAAAAAAA], the binding result in data set [2] (Kd or nd only in figure) is “binds more weakly”. ACGCCAAUAAAA [Cy5-ACGCCAAUAAAA]: the binding result in data set [2] (Kd printed only in figure) is given as “binds”.
